## Screening data, single-dose tests

Data taken from ChEMBL document CHEMBL3988442, “University of Dundee, Small-Polar-MMV Screening Library” (2021).

A: 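Growth of Mycobacterium tuberculosis over 4 days (cholesterol / DPPC medium with tyloxapol); the read-out is not stated. Concentration: 50 µM. The record gives no direction; compounds that gave an IC50 in retests scored well above the rest, so higher reads as more growth inhibition. Of about 69,000 compounds tested this way, about 370 (0.54%) reached 50% or more in at least one test.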
B: 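Phenotypic screen: M. tuberculosis growth, glucose 7H9 medium, 3 days; the read-out is not stated. Tested at 50 µM. Direction is inferred from retests: higher values go with more growth inhibition. About 69,000 compounds were tested under these conditions; 1.1% (about 760) showed 50% or more at least once.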

Results are given as percent effect.
The controls that fix the scale are not given in the record; negative values are as filed.
Compounds were drawn at random from those tested, without regard to their results.
Two or more numbers in one place are separate tests of the same structure; such repeats can differ widely.

{"smiles": "CNCc1cc(F)ccc1Oc1ccc(F)cc1F", "A": -23.15, "B": -29.36}
{"smiles": "[H][C@]12CCN(Cc3nccs3)[C@@]1([H])C[C@H](C(=O)N1CCN(C)CC1)O2", "A": "-9.338 and -3.811", "B": -15.1}
{"smiles": "COc1ccc(CN2CC(O)CN(C(=O)c3ccccc3)CC2=O)cc1", "stereo": "stereo unspecified", "A": -13, "B": -0.4624}
{"smiles": "Cc1nn(C)cc1Cn1c(=O)cnc2ccccc21", "A": -30.52, "B": -13.01}
{"smiles": "CC(C)(C)n1cc(C(=O)N2CCN(Cc3ccccc3F)CC2)cn1", "A": -5.599, "B": -12.14}
{"smiles": "CCN(Cc1ccco1)C(C)c1nc(C(C)C)no1", "stereo": "stereo unspecified", "A": -5.003, "B": -3.91}
{"smiles": "CSCCC(O)C(=O)N1CCCN(Cc2cccnc2)CC1", "stereo": "stereo unspecified", "A": 15.94, "B": 10.56}
{"smiles": "NC(=O)C1CCN(C(=O)NCc2ccccc2Cn2cncn2)CC1", "A": -1.589, "B": -26.83}
{"smiles": "Cn1nnc2cc(C(=O)NS(=O)(=O)Cc3ccc(F)cc3)ccc21", "A": -21.73, "B": -29.07}
{"smiles": "O=C(NCC1Cn2nnc(-c3ccsc3)c2CO1)c1ccc[nH]1", "stereo": "stereo unspecified", "A": -29.12, "B": -41.64}
{"smiles": "CN1CC(C(=O)NCc2cccnc2OCc2ccccc2)CC1=O", "stereo": "stereo unspecified", "A": 5.985, "B": "1.589 and 1.797"}
{"smiles": "CCc1ccc(-c2cc(C(F)(F)F)nc(N3CCC(N)CC3)n2)cc1", "A": 112.8, "B": "109.5 and 104.1"}
{"smiles": "CCc1noc(C2CCCCN2C(=O)c2ccn(C3CCCC3)n2)n1", "stereo": "stereo unspecified", "A": -12.24, "B": 17.39}
{"smiles": "COc1c(C)cnc(CSc2nnc(NC3CC3)s2)c1C", "A": "-15.88 and -8.862", "B": 25.51}
{"smiles": "CO[C@@]1(C)C[C@@H](O)C12CCN(C(=O)CCn1c(C)cccc1=O)CC2", "A": "-14.91 and -4.796", "B": -8.718}
{"smiles": "Cn1cccc1C(=O)N1CCC2(CC1)COC(COc1ccccn1)C2.O=C(O)C(F)(F)F", "stereo": "stereo unspecified", "A": -2.592, "B": -4.605}
{"smiles": "Cn1cc(C(=O)Nc2ccc(CC(=O)NC3CC3)cc2)nn1", "A": 17.54, "B": 3.09}
{"smiles": "CC(c1nc(C2CC2)no1)N1CCN(CC(=O)N2CCOCC2)CC1", "stereo": "stereo unspecified", "A": -10.27, "B": 0.354}
{"smiles": "CN(CCCNC(=O)Nc1ccc(C#N)cc1)CC(F)(F)F", "A": "10.25 and 13.49", "B": 9.157}
{"smiles": "COCCNS(=O)(=O)c1cccc(CSC)c1", "A": 1.935, "B": -18.85}
{"smiles": "Cc1nc(CC(=O)N2CCC(c3ccn4nccc4n3)CC2)cs1", "A": "0.8926 and -0.6997", "B": 6.412}
{"smiles": "CN(C(=O)c1cn(C)cn1)[C@@H]1CCC[C@@H](Oc2ccccc2)[C@@H]1O", "A": 10.48, "B": 27.12}
{"smiles": "Cc1cc(NC(=O)NCC(O)c2ccc(Cl)cc2Cl)n(C)n1", "stereo": "stereo unspecified", "A": -4.332, "B": -17.44}
{"smiles": "O=C(CCc1nc2ccccc2[nH]1)Nc1ccc2c(c1)OCC(=O)N2", "A": 20.11, "B": "0.1306 and -5.047"}
{"smiles": "CN(C)CC(=O)NC1CC(=O)N(CCc2ccccc2)C1", "stereo": "stereo unspecified", "A": 21.5, "B": "31.83 and 0.3175"}
{"smiles": "O=C1c2cccnc2OC(CN2CCOCC2)CN1CC1CC1", "stereo": "stereo unspecified", "A": -11.75, "B": -8.302}
{"smiles": "CCOc1ccccc1C(=O)NS(=O)(=O)c1ccc2c(c1)OCCCO2", "A": -7.058, "B": 13.78}
{"smiles": "CCSc1ccc(NC(=O)NC(C)c2c(C)nn(C)c2C)cn1", "stereo": "stereo unspecified", "A": 12.99, "B": 1.669}
{"smiles": "CS(=O)(=O)N1CCC(Oc2ccc(C(=O)NCC3CCC3)cc2Cl)CC1", "A": -5.217, "B": 25.89}
{"smiles": "O=C(O)C(F)(F)F.O=C1CC2(CCCCN2C(=O)c2ccco2)CN1c1cccnc1", "stereo": "stereo unspecified", "A": -3.199, "B": "2.866 and 5.071"}
{"smiles": "OC1(c2cn(CC3CCN(C4CCSC4)CC3)nn2)CCCC1", "stereo": "stereo unspecified", "A": -20.01, "B": -5.934}
{"smiles": "O=C(O)C(F)(F)F.[H][C@@]12C[C@H](C(=O)N3CCCCO3)CN(Cc3ccccc3C)[C@]1([H])CCO2", "A": "3.13 and 8.47", "B": -17.04}
{"smiles": "CN(CCOc1cccc(S(C)(=O)=O)c1)c1ccccc1", "A": "15.72 and 9.451", "B": 21.36}
{"smiles": "CN(C)S(=O)(=O)N1CCC2(CC1)CC(OCC1CC1)CO2", "stereo": "stereo unspecified", "A": -5.278, "B": 7.854}
{"smiles": "Cc1cc(C)nc(N2CCC(c3cccc(CCC(=O)O)n3)CC2)n1", "A": "0.01142 and -7.149", "B": -11.97}
{"smiles": "CCOCc1nn(CC2CC2)c2c1CN(Cc1ccco1)CC2.O=C(O)C(F)(F)F", "A": 11.65, "B": 0.8342}
{"smiles": "O=C(c1cccs1)N1CC(Oc2ccccc2Cl)C1", "A": "47.33 and 49.13", "B": 47.17}
{"smiles": "[H][C@]12CC[C@@]3(N=C(CC)NC3=O)[C@@]1([H])CN(C(=O)NCc1ccccc1C)C2", "A": -15.71, "B": 21.32}
{"smiles": "CC1CCC(NS(=O)(=O)CC(=O)NCC2CCC2)CC1", "stereo": "stereo unspecified", "A": 16.9, "B": 47.64}